The text below walks through data of publication PMC5361079 (Scientific Reports, 2017).

Protein sequences, listed by entry. Tags and fused reporters are not part of them.
UniProt Q01668, whole entry: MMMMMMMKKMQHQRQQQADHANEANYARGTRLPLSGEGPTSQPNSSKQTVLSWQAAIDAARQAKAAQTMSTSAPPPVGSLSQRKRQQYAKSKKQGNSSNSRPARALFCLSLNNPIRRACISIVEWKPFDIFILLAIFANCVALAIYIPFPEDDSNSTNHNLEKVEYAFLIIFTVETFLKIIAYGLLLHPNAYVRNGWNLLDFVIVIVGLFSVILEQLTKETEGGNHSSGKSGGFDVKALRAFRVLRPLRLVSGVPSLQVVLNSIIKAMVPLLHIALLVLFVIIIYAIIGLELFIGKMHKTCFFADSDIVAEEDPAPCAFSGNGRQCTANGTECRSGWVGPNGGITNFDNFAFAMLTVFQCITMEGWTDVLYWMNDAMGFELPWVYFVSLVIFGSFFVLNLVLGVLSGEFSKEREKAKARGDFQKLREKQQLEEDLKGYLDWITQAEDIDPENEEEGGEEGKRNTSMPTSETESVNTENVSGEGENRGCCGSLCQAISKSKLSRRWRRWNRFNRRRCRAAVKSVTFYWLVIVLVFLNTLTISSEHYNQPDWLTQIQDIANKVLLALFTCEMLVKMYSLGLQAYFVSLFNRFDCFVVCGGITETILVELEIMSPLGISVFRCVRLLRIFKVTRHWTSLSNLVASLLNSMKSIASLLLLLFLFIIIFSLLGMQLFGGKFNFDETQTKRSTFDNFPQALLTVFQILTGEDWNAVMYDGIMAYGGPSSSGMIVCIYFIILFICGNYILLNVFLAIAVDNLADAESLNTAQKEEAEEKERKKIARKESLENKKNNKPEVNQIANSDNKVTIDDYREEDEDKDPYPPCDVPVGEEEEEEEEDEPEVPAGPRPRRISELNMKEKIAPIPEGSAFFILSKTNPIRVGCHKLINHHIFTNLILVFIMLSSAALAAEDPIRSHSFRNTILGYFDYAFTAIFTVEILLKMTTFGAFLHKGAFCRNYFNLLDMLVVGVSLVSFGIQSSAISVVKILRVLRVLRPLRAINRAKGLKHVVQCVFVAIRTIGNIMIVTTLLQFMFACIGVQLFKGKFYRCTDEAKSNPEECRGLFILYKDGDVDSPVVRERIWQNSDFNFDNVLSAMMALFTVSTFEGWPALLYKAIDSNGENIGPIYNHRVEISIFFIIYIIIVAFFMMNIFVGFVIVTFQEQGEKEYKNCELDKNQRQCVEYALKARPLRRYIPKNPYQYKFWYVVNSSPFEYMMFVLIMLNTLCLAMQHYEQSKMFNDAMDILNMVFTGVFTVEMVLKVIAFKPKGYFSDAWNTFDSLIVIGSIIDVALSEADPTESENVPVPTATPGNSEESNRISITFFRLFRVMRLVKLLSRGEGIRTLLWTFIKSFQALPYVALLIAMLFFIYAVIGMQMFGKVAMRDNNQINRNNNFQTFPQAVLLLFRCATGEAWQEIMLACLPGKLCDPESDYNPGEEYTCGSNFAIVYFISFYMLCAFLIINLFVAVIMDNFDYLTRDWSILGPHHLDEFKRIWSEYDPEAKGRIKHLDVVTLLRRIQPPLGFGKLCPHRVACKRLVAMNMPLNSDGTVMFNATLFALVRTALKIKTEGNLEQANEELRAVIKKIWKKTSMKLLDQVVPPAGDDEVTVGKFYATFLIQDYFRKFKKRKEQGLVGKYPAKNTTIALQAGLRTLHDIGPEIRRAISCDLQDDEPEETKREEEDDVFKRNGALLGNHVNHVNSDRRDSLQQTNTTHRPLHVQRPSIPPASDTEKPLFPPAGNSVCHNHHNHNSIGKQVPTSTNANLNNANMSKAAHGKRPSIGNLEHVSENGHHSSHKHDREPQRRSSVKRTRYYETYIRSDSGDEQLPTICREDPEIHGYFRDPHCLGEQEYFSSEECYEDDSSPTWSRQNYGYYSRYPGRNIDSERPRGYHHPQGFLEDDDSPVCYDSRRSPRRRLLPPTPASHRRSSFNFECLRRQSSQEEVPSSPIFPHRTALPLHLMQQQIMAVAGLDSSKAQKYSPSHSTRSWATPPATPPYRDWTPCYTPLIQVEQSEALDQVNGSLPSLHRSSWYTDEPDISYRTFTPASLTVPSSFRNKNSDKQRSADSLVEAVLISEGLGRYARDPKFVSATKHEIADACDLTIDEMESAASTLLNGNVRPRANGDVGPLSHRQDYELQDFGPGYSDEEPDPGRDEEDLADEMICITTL

A short description of data set [1]: Plasma concentration in anesthetized guinea pigs. To be noted: IV. The text has this:
Adult, male Dunkin-Hartley guinea pigs (350–550 g) were anesthetized and instrumented as previously described.

The target in another data set is T1, Cav1.3 (Homo sapiens, UniProt Q01668).
T1 construct: host or cells: HEK-293 (transient overexpression)
Nature of the data set: Ca2+ influx in Cav1.3/HEK-293 cells (FDSS). The format is cell-based. To be noted: IC50, Ca2+ influx inhibition by amiodarone. As for the experimental part:
The HEK-293 cell line overexpressing Cav1.2 channel proteins was maintained in-house. HEK-293 cells transiently overexpressing Cav1.3 channel proteins were purchased from ChanTest (Charles River Laboratories, Cleveland, OH, USA). The assay was conducted as previously described. Briefly, on experiment day, cells were incubated with Codex ACTOne® dye (Codex Biosolutions, Inc., Gaithersburg, MD, USA) formulated in PPB buffer containing 25 mM potassium (in mM: 127 NaCl, 25 KCl 0.005 CaCl2, 1.7 MgCl2, 10 HEPES, pH = 7.2 with NaOH), or PPB buffer containing 1 mM potassium (in mM: 151 NaCl, 1 KCl 0.005 CaCl2, 1.7 MgCl2, 10 HEPES, pH = 7.2 with NaOH) for 1 h at room temperature, then test compounds were added for another 30-minute incubation at room temperature with a final volume of 100 μL. The Hamamatsu FDSS/μCell imaging platform simultaneously collected Ca^2+ signals from 96-well plates, at a sampling rate of 16 Hz for 20 seconds as baseline, then a trigger buffer (containing in mM: 119 NaCl, 25 KCl, 4 CaCl2, 1.7 MgCl2, 10 HEPES, pH = 7.2 with NaOH) was added using the dispenser of the FDSS/μCell instrument to generate Ca^2+ transient for 40 seconds. The peak amplitude within the latter 40 seconds minus the average amplitude of the first 20 seconds is the final Ca^2+ transient response of each well. […] Relative response of each well was calculated as follows: […]

Data set [2] in a line: Plasma concentration in conscious rhesus monkeys. To be noted: at the end of the MNI-2+amiodarone experiment. On the procedure:
Arterial BP and ECG waveforms from four chronically-instrumented male, rhesus monkeys (8-16 kg at time of study, approximately 5–8 years of age), were continuously recorded (Notocord-hem™ v 4.3.0.67) and analyzed as described. Prior to study, animals were acclimated to the restraint chair and the laboratory environment over multiple sessions. […] MNI-2 was formulated in 30% Captisol®. […] Samples were placed on wet ice, centrifuged at 4 °C and plasma removed and stored at −70 °C until analysis of concentration of test agents and any metabolites of interest.

For orientation: IC50 means the midpoint of a concentration-inhibition curve.

`CCCCc1oc2ccccc2c1C(=O)c1cc(I)c(OCCN(CC)CC)c(I)c1` [amiodarone, reference compound]: the “Plasma concentration of parent” value came to 1100 ± 200 nM in data set [1] (agent + vehicle, End of Infusion 1); 1100 ± 300 nM in data set [1] (agent + vehicle, End of Infusion 2); 1100 ± 300 nM in data set [1] (agent + vehicle, End of Infusion 3); 1400 ± 400 nM in data set [1] (agent + vehicle, End of Infusion 4); 1200 ± 200 nM in data set [1] (treatment MNI-2+AMIO, End of Infusion 1); 900 ± 40 nM in data set [1] (treatment MNI-2+AMIO, End of Infusion 2). Further, the “Plasma concentration of parent” value in data set [1] (treatment MNI-2+AMIO, End of Infusion 3) was 900 ± 100 nM; in data set [1] (treatment MNI-2+AMIO, End of Infusion 4) it was 900 ± 200 nM. Also, the IC50 at Cav1.3 (Cav1.3/HEK-293, 1 μM MNI-1 + amiodarone) stood at 0.19 µM; against Cav1.3 (Cav1.3/HEK-293, amiodarone alone), 0.53 µM. Besides, the Plasma concentration in data set [2] was determined as 402 ± 23 ng/mL.
